These results are taken from paper PMC12848939.

These are yes or no findings as the source states them, for the method shown. Some binding calls cover weakened binding; strength is not graded here. Tags and fused reporters may be left off the sequences shown.

In assay [1] the target is T1, Kre33 (yeast two-hybrid fusion) (S. cerevisiae) (UniProt P53914).
T1 sequence: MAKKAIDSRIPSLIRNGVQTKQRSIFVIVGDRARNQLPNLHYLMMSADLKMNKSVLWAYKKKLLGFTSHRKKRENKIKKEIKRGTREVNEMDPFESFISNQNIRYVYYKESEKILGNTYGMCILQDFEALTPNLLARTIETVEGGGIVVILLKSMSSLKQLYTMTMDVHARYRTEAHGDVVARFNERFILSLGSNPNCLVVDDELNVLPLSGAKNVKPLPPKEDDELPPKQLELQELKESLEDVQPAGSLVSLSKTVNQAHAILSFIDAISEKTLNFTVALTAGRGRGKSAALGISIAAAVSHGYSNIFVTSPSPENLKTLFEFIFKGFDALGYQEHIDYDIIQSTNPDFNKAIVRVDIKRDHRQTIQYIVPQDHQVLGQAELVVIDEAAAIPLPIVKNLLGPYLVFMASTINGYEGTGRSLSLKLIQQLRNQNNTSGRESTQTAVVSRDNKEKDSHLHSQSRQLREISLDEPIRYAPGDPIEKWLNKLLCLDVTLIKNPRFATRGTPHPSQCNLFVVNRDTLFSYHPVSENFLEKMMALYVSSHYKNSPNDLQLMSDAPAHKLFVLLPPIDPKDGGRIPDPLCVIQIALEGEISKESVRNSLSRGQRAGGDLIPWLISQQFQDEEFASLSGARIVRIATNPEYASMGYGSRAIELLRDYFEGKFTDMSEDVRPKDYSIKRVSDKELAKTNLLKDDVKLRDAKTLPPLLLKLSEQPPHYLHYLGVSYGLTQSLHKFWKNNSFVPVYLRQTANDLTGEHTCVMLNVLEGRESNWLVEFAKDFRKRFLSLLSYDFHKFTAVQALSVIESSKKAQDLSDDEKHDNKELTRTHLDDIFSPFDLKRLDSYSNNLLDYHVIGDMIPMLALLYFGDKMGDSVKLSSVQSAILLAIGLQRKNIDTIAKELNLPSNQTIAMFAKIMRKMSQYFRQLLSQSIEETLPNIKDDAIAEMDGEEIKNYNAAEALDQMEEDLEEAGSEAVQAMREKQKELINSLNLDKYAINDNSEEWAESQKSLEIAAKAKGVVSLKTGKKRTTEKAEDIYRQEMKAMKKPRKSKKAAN
Put plainly: two-hybrid; Gal4 yeast two-hybrid in strain PJ69-4A; bait with Gal4 DNA-binding domain (BDN), prey with Gal4 activation domain (ADC); growth on -His (weak) or -Ade (strong) plates, 3 days at 30°C.

Assay [2] deals with T2, Tan1 (yeast two-hybrid fusion) (S. cerevisiae) (UniProt P53072).
T2 sequence: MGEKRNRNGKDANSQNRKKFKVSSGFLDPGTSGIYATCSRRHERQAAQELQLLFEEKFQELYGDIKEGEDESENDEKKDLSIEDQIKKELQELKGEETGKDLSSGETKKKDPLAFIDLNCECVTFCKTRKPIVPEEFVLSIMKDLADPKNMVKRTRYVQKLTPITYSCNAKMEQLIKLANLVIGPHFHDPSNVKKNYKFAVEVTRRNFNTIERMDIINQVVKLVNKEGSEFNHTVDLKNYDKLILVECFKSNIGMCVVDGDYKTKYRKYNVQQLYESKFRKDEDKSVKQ
Described as above.

B1: Sni445 (yeast two-hybrid fusion) (protein, UniProt P53952 1-270)
chain: MSEFKIVSRKDLYNEGEGLGEDYDSNSSSKNNSEHVEVLVPPTEFEFVEVERTDSSLDLKESNNSAHEQKEEKQEEFEFPLFSFGVVEASTSPAQEEQGSSTQEKDTPQTEVSLMKISLKEPEEEIINQERPKDYYFASYSADQKLQFQQSSIDYDVIIQESTKILEDDLRIRDKWPYCQGRIIDLYKHNARIELEQQKELKIKKRRPGQKQRAAKKLALERTKERDTKAREIKKQLKKKFHKRGGKKNKKKVPLNPLAKAGSTPKFRTE
As to B1, the results for the binding entry in assay [1] and in assay [2] were “binds” and “no binding”, respectively.

B2: Tan1 (yeast two-hybrid fusion) (protein, UniProt P53072 1-289)
chain: MGEKRNRNGKDANSQNRKKFKVSSGFLDPGTSGIYATCSRRHERQAAQELQLLFEEKFQELYGDIKEGEDESENDEKKDLSIEDQIKKELQELKGEETGKDLSSGETKKKDPLAFIDLNCECVTFCKTRKPIVPEEFVLSIMKDLADPKNMVKRTRYVQKLTPITYSCNAKMEQLIKLANLVIGPHFHDPSNVKKNYKFAVEVTRRNFNTIERMDIINQVVKLVNKEGSEFNHTVDLKNYDKLILVECFKSNIGMCVVDGDYKTKYRKYNVQQLYESKFRKDEDKSVKQ
Consider B2, for which, in assay [1], the binding result is listed as “binds”.
